{"source": "PubChem BioAssay AID590", "about": "(National Center for Advancing Translational Sciences (NCATS), 2007)", "note": "About 6,500 (11%) of roughly 59,000 compounds were called active. Inconclusive results, whose numbers are uncertain, are shown with a selection of clear calls. Rule as the data show it: active = max dye-equivalent concentration above about 10 nM; inconclusive = mostly about 1.1 nM to 9.6 nM; inactive = weaker than that."}
{"assay": "qHTS Assay for Spectroscopic Profiling in A350 Spectral Region", "details": "Compound autofluorescence, 340/450 nm, Alexa 350 dye-equivalents; stronger effect = higher value"}
{"smiles": "CC(=C(CCOP(=O)(O)O)SC(=O)c1ccccc1)N(C=O)Cc1cnc(C)nc1N", "max dye-equivalent concentration": "inconclusive: 1.4 nM"}
{"smiles": "O=C(CSc1nc(O)cc(=O)[nH]1)N1CCCc2ccccc21", "max dye-equivalent concentration": "inconclusive: 1.3 nM"}
{"smiles": "CC(=O)c1cc2c(cc1NC(=O)c1ccc(-n3nc(C)cc3C)cc1)OCO2", "max dye-equivalent concentration": "active: 720 nM"}
{"smiles": "O=C(CSc1nnc(-c2ccco2)o1)N1c2ccccc2CCc2ccccc21", "max dye-equivalent concentration": "inactive"}
{"smiles": "COc1ccccc1NC(=O)C1CC(=O)N(c2ccc(F)cc2)C1", "note": "(stereo not drawn)", "max dye-equivalent concentration": "inconclusive: 1.1 nM"}
{"smiles": "CC(=O)c1ccc(N2CCN(C(=O)CCS(=O)(=O)c3ccc(C)cc3)CC2)cc1", "max dye-equivalent concentration": "inconclusive: 4.7 nM"}
{"smiles": "CCOC(=O)[C@H]1CCC[C@@H](NS(=O)(=O)c2ccc(NC(C)=O)cc2)C1", "max dye-equivalent concentration": "inconclusive: 5.5 nM"}
{"smiles": "CCNc1nc(NCC)n2c(SCc3nc4ccccc4c(=O)[nH]3)nnc2n1", "max dye-equivalent concentration": "inconclusive: 1.7 nM"}
{"smiles": "CN(C)Cc1ccccc1-c1cncnc1Nc1ccc(F)cc1", "max dye-equivalent concentration": "inconclusive: 2.4 nM"}
{"smiles": "CCNc1ncc2ncc(=O)n(CCc3ccccc3)c2n1", "max dye-equivalent concentration": "active: 89 nM"}
{"smiles": "O=C1CCCC2=C1C(c1cn(-c3ccccc3)nc1-c1cccs1)c1c([nH]c(=O)[nH]c1=O)N2", "note": "(stereo not drawn)", "max dye-equivalent concentration": "inconclusive: 2 nM"}
{"smiles": "COc1ccc(NC(=O)CN2CCN(c3ccccc3F)CC2)cc1", "max dye-equivalent concentration": "inconclusive: 2.4 nM"}
{"smiles": "CC(C)(C)c1ccc(C(=O)CSc2ncn[nH]2)cc1", "max dye-equivalent concentration": "inactive"}
{"smiles": "CCCn1c(N)c(C(=O)CSc2nc3ccccc3n2CCC#N)c(=O)n(C)c1=O", "max dye-equivalent concentration": "inactive"}
{"smiles": "Cc1noc(C)c1-c1cc(Nc2ccccc2)ncn1", "max dye-equivalent concentration": "inactive"}
{"smiles": "CCc1cc(=O)oc2cc(C)c(CN3CCCC(C)C3)c(O)c12", "note": "(stereo not drawn)", "max dye-equivalent concentration": "inconclusive: 2.4 nM"}
{"smiles": "COCCn1c(=O)c2c(nc3n2CCN3c2ccc(C)cc2)n(C)c1=O", "max dye-equivalent concentration": "inconclusive: 1.7 nM"}
{"smiles": "COc1cccc(-c2cc(NCc3ccccc3OC)ncn2)c1", "max dye-equivalent concentration": "inconclusive: 2.1 nM"}
{"smiles": "CC(=O)Nc1cc(C(=O)O)ccc1S(=O)(=O)c1ccc(Cl)cc1", "max dye-equivalent concentration": "inconclusive: 4.5 nM"}
{"smiles": "Cc1cc(C)c2c(=O)c3c(oc2c1)C(=O)N(CCO)C3c1cccc(O)c1", "note": "(stereo not drawn)", "max dye-equivalent concentration": "inconclusive: 1.3 nM"}
{"smiles": "CCCSc1nc(C)cc(=O)[nH]1", "max dye-equivalent concentration": "inconclusive: 2.1 nM"}
{"smiles": "O=C(c1cc2cc(Cl)ccc2oc1=O)N1CCOCC1", "max dye-equivalent concentration": "inconclusive: 3.4 nM"}
{"smiles": "O=C(O)C1=C/C(=C(/c2ccccc2)c2cc(C(=O)O)c(O)c3ccccc23)c2ccccc2C1=O", "max dye-equivalent concentration": "inactive"}
{"smiles": "C[C@@H]1CCC[C@H](C)N1", "max dye-equivalent concentration": "inactive"}
{"smiles": "COc1ccc(OC)c2[nH]c(=O)c(CCNC(=O)C3CCCCC3)cc12", "max dye-equivalent concentration": "inconclusive: 5 nM"}
{"smiles": "Cc1nc2cnc(N3CCN(C)CC3)nc2n(Cc2ccc(F)cc2)c1=O", "max dye-equivalent concentration": "active: 36 nM"}
{"smiles": "CC1CN(C(=O)c2ccncc2)CC(C)O1", "note": "(stereo not drawn)", "max dye-equivalent concentration": "inconclusive: 7.6 nM"}
{"smiles": "CCn1cc(C(=O)Nn2cnnc2)c(=O)c2ccc(C)nc21", "max dye-equivalent concentration": "inconclusive: 1.6 nM"}
{"smiles": "CCOC(=O)C1(C)NC(c2ccc(N(C)C)cc2)C2C(=O)N(c3ccc(OC)cc3)C(=O)C21", "note": "(stereo not drawn)", "max dye-equivalent concentration": "inconclusive: 4.3 nM"}
{"smiles": "O=C(CSc1n[nH]c(-c2cccnc2)n1)Nc1ccnc2ccccc12", "max dye-equivalent concentration": "inconclusive: 1.1 nM"}
{"smiles": "Cc1ccc(C(C(=O)NC2CCCC2)N(C(=O)c2csnn2)C2CCCC2)o1", "note": "(stereo not drawn)", "max dye-equivalent concentration": "inactive"}
{"smiles": "Cc1cc(C)n2nc(C(=O)OCCOc3ccc(Br)cc3)nc2n1", "max dye-equivalent concentration": "inactive"}
{"smiles": "Cc1cc(Cl)cc(C)c1OCCCCN1CCOCC1", "max dye-equivalent concentration": "inconclusive: 1.3 nM"}
{"smiles": "O=C(O)c1cc(=O)c2c(Cl)cc(Cl)cc2[nH]1", "max dye-equivalent concentration": "inconclusive: 1.9 nM"}
{"smiles": "N#CC1=C(N)C(C#N)(C#N)[C@H](c2ccncc2)[C@H]2CN(C(=O)OCc3ccccc3)CC=C12", "max dye-equivalent concentration": "active: 100 nM"}
{"smiles": "O=C(CSc1nc2ccccc2n1-c1ccccc1)NCC1CCCO1", "note": "(stereo not drawn)", "max dye-equivalent concentration": "inactive"}
{"smiles": "Cc1cc(C)nc(N2CCCC(C(=O)Nc3ccc4nc(C)c(C)nc4c3)C2)n1", "note": "(stereo not drawn)", "max dye-equivalent concentration": "inconclusive: 1.5 nM"}
{"smiles": "COc1cc(C2C3C(=O)N(c4ccccc4)C(=O)C3ON2c2ccccc2)cc(OC)c1OC", "note": "(stereo not drawn)", "max dye-equivalent concentration": "inactive"}
{"smiles": "O=C(c1csc2ccccc12)N1CCN(c2ccccn2)CC1", "max dye-equivalent concentration": "inactive"}
{"smiles": "COc1cccc(-c2nnc(SCc3ccc(C#N)cc3)n2Cc2ccco2)c1", "max dye-equivalent concentration": "inactive"}
{"smiles": "O=C(NCC(=O)N(CC1CCCO1)C(C(=O)NC1CCCC1)c1ccc(F)cc1)c1ccco1", "note": "(stereo not drawn)", "max dye-equivalent concentration": "inconclusive: 1.1 nM"}
{"smiles": "CC(C)C(c1nnnn1CC1CCCO1)N1CCN(Cc2ccc3c(c2)OCO3)CC1", "note": "(stereo not drawn)", "max dye-equivalent concentration": "inactive"}
{"smiles": "CC(=O)c1c(C)[nH]c(C(=O)Nc2ccc3c(c2)OCCO3)c1C", "max dye-equivalent concentration": "inactive"}
{"smiles": "CCCCn1c2nc3ccccc3nc2c2c(=O)n(C(C)CC)cnc21", "note": "(stereo not drawn)", "max dye-equivalent concentration": "active: 1400 nM"}
{"smiles": "COc1ccc(OC)c(S(=O)(=O)N2C(C)CCCC2C)c1", "note": "(stereo not drawn)", "max dye-equivalent concentration": "inconclusive: 1.9 nM"}
{"smiles": "COCCCN1C(=O)C(=O)/C(=C(/O)c2ccc(OCC(C)C)cc2)C1c1cccnc1", "note": "(stereo not drawn)", "max dye-equivalent concentration": "inconclusive: 1.3 nM"}
{"smiles": "Cc1ccc(N=Nc2c(O)ccc3cc(S(=O)(=O)O)ccc23)cc1", "max dye-equivalent concentration": "inconclusive: 1.1 nM"}
{"smiles": "Cn1c(=O)[nH]c(=O)c2c1nc(Br)n2CC(O)COCc1ccccc1", "note": "(stereo not drawn)", "max dye-equivalent concentration": "inconclusive: 3.2 nM"}
{"smiles": "O=C(NC1CCCCCCC1)c1ccc2c(c1)N(Cc1ccc(F)cc1)C(=O)CS2=O", "note": "(stereo not drawn)", "max dye-equivalent concentration": "inactive"}
{"smiles": "O=C(CCCC(=O)N(CC(=O)NC1CCCC1)Cc1ccccc1)Nc1ccccn1", "max dye-equivalent concentration": "inconclusive: 1.5 nM"}
{"smiles": "Cc1ccccc1Cn1ccc(NC(=O)CCSc2nc(-c3ccco3)cc(C(F)(F)F)n2)n1", "max dye-equivalent concentration": "inconclusive: 2 nM"}
{"smiles": "CCC(C)(C)n1nnnc1C(C(C)C)N(CCCO)Cc1cc2cc(C)ccc2[nH]c1=O", "note": "(stereo not drawn)", "max dye-equivalent concentration": "inconclusive: 1.1 nM"}
{"smiles": "CCOC(=O)C1=C(C)NC2=C(C(=O)CC(c3ccc(OC)c(OC)c3)C2)C1c1ccc(C)o1", "note": "(stereo not drawn)", "max dye-equivalent concentration": "inconclusive: 7.1 nM"}
{"smiles": "CCOC(=O)c1ccc(CC(=O)c2oc3cc(O)ccc3c2C)o1", "max dye-equivalent concentration": "active: 57 nM"}
{"smiles": "CCOC(=O)C1CCCN(CC(=O)Nc2c(C(=O)OC)[nH]c3ccc(Cl)cc23)C1", "note": "(stereo not drawn)", "max dye-equivalent concentration": "inconclusive: 1.9 nM"}
{"smiles": "COCCn1c(=O)c(-c2ccc(Cl)cc2)nc2cnc(Nc3ccccc3)nc21", "max dye-equivalent concentration": "inconclusive: 2.2 nM"}
{"smiles": "Cc1coc(NC(=O)CSc2nc(-c3ccncc3)cc(C(F)(F)F)c2C#N)n1", "max dye-equivalent concentration": "active: 58 nM"}
{"smiles": "CC(C)c1nnc(NC(=O)c2c(O)c3cccc4c3n(c2=O)CCC4)s1", "max dye-equivalent concentration": "inconclusive: 7.1 nM"}
{"smiles": "COc1ccc(OC)c(NC(=O)Cn2cc(C#N)c3ccccc32)c1", "max dye-equivalent concentration": "inactive"}
{"smiles": "Cc1ccc(C(=O)O[C@@H](C(=O)O)[C@@H](OC(=O)c2ccc(C)cc2)C(=O)O)cc1", "note": "(tested in a mixture with another compound)", "max dye-equivalent concentration": "inactive"}
{"smiles": "c1ccc2c(-c3nc(C4CCCCC4)no3)cc(-c3ccncc3)nc2c1", "max dye-equivalent concentration": "active: 21 nM"}
{"smiles": "Cc1cc(C)nc(N2CCC(C(=O)O)CC2)n1", "max dye-equivalent concentration": "inconclusive: 7.3 nM"}
{"smiles": "Cc1occc1-c1nnc(SCC(=O)c2ccc(F)cc2)o1", "max dye-equivalent concentration": "inconclusive: 1.3 nM"}
{"smiles": "COCCCN1C(=O)C(=O)/C(=C(/O)c2ccc(OC)cc2)C1c1cccc(OC)c1", "note": "(stereo not drawn)", "max dye-equivalent concentration": "inactive"}
{"smiles": "CCn1cc(C(=O)NCc2ccc3c(c2)OCO3)c(=O)c2cc(F)c(N3CCN(C)CC3)cc21", "max dye-equivalent concentration": "inconclusive: 4.5 nM"}
{"smiles": "Cn1nnnc1SCC(=O)N(C1CCCCC1)C1CCCCC1", "max dye-equivalent concentration": "inconclusive: 2.2 nM"}
{"smiles": "CC(=O)NCCNc1ccnc(-c2ccccc2C(F)(F)F)n1", "max dye-equivalent concentration": "active: 34 nM"}
{"smiles": "O=C(CCn1c(=S)[nH]c2cc3c(cc2c1=O)OCO3)N1CCN(c2ccccn2)CC1", "max dye-equivalent concentration": "inconclusive: 7.9 nM"}
{"smiles": "COc1ccc(S(=O)(=O)N(C)CC(=O)O)c2ccccc12", "max dye-equivalent concentration": "inactive"}
{"smiles": "C=C(C)CN(CC)c1nc(N)c(C#N)c(CC#N)c1C#N", "max dye-equivalent concentration": "inconclusive: 3.5 nM"}
{"smiles": "CCOC(=O)N1CCN(C(=O)c2nn(-c3ccc(C)cc3)c(=O)c3c2c2ccccc2n3C)CC1", "max dye-equivalent concentration": "inconclusive: 4.4 nM"}
{"smiles": "COC(=O)[C@@H](NC(=O)NC1CCCc2ccccc21)C(C)C", "note": "(stereo partly drawn)", "max dye-equivalent concentration": "inconclusive: 1.4 nM"}
{"smiles": "CCCSC1=C(C#N)C(c2ccc(OC)cc2)C2=C(CC(C)(C)CC2=O)N1", "note": "(stereo not drawn)", "max dye-equivalent concentration": "active: 85 nM"}
{"smiles": "COc1ccc(OC)c(-c2cc(C(=O)O)c3cc4ccccc4cc3n2)c1", "max dye-equivalent concentration": "inactive"}
{"smiles": "N#Cc1nc(-c2ccco2)oc1N1CCOCC1", "max dye-equivalent concentration": "inconclusive: 5.3 nM"}
{"smiles": "COc1ncc2nc(-c3ccc(F)cc3)c(=O)n(Cc3ccc(F)cc3)c2n1", "max dye-equivalent concentration": "inconclusive: 5.5 nM"}
{"smiles": "CCn1c2ccc(CC(=O)O)cc2c2cc(CC(=O)O)ccc21", "max dye-equivalent concentration": "inconclusive: 5.6 nM"}
{"smiles": "CC(=O)SCC(=O)N=c1sc2cc(F)ccc2n1C", "max dye-equivalent concentration": "inconclusive: 1.7 nM"}
{"smiles": "O=c1cc(-c2ccccc2)[nH]n1-c1nc2ccccc2[nH]1", "max dye-equivalent concentration": "active: 35 nM"}
{"smiles": "O=C(COc1ccccc1)Nc1cccc2nsnc12", "max dye-equivalent concentration": "active: 25 nM"}
{"smiles": "COc1ccccc1-c1nn2c(-c3ccco3)nnc2s1", "max dye-equivalent concentration": "inconclusive: 1.5 nM"}
{"smiles": "COc1ccc(-c2c(C)n([O-])c3c([n+]2=O)CCC3)cc1OC", "max dye-equivalent concentration": "inconclusive: 2.5 nM"}
{"smiles": "CN(C)c1oc(-c2cccs2)nc1C#N", "max dye-equivalent concentration": "active: 4300 nM"}
{"smiles": "OCCN1CN=C(Nc2nc3ccccc3o2)NC1", "max dye-equivalent concentration": "inactive"}
{"smiles": "Cc1[nH]n2c(=O)c3c(nc2c1-c1ccccc1)CCCC3", "max dye-equivalent concentration": "inactive"}
{"smiles": "COc1ccc(/C(O)=C2/C(=O)C(=O)N(Cc3cccnc3)C2c2ccncc2)cc1F", "note": "(stereo not drawn)", "max dye-equivalent concentration": "inconclusive: 2.2 nM"}
{"smiles": "O=C1c2ccccc2-c2c1nc1c([n+]2[O-])CCCC1", "max dye-equivalent concentration": "inactive"}
{"smiles": "CN=Cc1sc2ccccc2c1O", "max dye-equivalent concentration": "inconclusive: 5.3 nM"}
